The source of these data is US20130004519A1.

Sequences of proteins named here, by UniProt entry; tags and fusion partners are left off. Residues count along the entry.
UniProt P24821, residues 23-2201: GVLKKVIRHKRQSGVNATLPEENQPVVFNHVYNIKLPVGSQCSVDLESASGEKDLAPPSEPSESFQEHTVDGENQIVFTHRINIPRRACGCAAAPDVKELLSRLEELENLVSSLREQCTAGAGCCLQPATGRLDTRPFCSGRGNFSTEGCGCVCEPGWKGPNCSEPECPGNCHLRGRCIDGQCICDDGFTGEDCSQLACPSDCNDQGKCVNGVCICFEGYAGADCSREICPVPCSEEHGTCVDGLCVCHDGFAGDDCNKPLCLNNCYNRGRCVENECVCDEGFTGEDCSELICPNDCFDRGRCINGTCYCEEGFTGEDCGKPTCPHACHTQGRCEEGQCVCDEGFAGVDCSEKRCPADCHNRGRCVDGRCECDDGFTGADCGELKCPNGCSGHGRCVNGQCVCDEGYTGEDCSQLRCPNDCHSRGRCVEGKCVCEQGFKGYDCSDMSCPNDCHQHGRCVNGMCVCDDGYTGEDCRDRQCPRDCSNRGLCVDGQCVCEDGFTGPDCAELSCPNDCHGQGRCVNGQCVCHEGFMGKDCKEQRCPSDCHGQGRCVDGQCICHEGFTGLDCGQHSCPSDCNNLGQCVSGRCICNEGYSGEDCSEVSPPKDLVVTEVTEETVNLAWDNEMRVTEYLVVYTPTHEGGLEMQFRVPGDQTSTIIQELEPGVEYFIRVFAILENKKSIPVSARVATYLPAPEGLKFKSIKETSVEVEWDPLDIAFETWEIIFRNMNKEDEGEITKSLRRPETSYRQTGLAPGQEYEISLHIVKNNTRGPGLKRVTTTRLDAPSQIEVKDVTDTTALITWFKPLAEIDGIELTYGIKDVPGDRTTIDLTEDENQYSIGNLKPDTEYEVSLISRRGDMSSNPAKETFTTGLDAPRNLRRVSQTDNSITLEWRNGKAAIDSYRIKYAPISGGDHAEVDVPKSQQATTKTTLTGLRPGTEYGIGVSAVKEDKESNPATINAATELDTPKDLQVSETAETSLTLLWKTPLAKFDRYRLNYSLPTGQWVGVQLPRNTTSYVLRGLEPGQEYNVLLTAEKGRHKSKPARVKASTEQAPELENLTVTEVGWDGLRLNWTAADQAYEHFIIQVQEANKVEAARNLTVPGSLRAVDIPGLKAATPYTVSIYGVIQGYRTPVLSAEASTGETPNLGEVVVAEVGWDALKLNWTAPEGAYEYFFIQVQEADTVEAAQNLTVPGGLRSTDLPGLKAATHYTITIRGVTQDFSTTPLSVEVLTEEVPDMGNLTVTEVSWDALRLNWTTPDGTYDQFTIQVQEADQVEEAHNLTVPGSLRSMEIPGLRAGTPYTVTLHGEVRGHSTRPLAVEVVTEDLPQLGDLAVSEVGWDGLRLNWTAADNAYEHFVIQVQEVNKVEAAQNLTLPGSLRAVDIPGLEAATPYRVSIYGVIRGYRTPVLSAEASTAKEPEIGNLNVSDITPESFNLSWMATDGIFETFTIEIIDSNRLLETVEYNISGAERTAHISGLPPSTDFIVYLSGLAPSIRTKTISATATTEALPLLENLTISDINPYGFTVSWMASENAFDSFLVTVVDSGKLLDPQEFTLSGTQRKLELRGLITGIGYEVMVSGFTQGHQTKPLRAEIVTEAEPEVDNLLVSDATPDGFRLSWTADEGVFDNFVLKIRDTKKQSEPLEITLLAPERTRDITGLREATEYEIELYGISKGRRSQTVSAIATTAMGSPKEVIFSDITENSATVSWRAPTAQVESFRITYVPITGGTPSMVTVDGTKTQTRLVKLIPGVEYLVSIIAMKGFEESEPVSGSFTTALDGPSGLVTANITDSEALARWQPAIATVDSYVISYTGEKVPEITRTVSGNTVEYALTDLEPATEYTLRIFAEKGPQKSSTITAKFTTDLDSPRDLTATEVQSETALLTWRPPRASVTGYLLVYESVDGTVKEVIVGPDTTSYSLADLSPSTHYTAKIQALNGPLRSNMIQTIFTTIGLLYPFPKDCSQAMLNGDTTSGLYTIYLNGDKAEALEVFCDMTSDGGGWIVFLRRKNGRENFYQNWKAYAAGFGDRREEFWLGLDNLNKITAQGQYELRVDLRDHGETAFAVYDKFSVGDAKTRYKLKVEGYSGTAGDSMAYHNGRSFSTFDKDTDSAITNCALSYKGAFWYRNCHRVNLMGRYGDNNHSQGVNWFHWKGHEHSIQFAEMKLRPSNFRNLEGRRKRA

The target of the test is T1, SMOC1-myc-DDK-his (human) (UniProt Q9H4F8).
T1 sequence: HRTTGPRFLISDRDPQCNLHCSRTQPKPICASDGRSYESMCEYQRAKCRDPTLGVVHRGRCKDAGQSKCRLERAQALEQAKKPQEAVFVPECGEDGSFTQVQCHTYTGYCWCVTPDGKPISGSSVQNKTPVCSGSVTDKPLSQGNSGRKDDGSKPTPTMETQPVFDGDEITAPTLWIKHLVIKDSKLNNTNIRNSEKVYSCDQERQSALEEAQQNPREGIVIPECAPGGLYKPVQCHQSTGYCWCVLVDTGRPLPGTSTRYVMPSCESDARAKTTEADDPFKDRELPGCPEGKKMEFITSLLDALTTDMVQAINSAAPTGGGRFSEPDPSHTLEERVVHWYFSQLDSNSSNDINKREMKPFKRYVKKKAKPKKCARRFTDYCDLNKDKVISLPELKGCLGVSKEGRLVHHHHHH
Briefly: co-immunoprecipitation from COS cell culture medium with the anti-tenascin-C antibody, western blot probed for SMOC1. For orientation: Immunoblotting shows a protein as a band on a membrane.

No constants are given. Whether binding was seen depends on the method and setting. Binding seen in cells or lysates may run through a third protein. Some binding calls cover weakened binding; strength is not graded here. Where a sequence is shown, tags or fusion partners need not be part of it.

Consider “His-tagged human tenascin-C (from UniProt P24821 23-2201)”, for which the binding entry is “binds”.
